Source: patent US6399764B1, “DNA molecule encoding for cellular uptake of mycobacterium tuberculosis and uses thereof” (priority 1997, dated 2002)
Some entries share one result that the patent states for a list of compounds. For at least one compound, name, drawing or mass did not settle the structure.

Tested on: HeLa cells
Conditions: HeLa monolayer, compound kept in medium during bead incubation

Structure (SMILES)	concentration that is cytotoxic to HeLa cells (cells slough off the plate)
COC(=O)Nc1nc2ccc(C(=O)c3cccs3)cc2[nH]1 [Nocodazole]	higher than 5 mg/ml
C=C1[C@@H](C)[C@H]2[C@H](Cc3ccccc3)NC(=O)[C@]23[C@H](OC(C)=O)/C=C/[C@@](C)(O)C(=O)[C@@H](C)C/C=C/[C@H]3[C@@H]1O [Cytochalasin D]	higher than 5 mg/ml
